# Construct, isoform or probe ends are uncertain for at least one entry. For some of these results: A negative result means that nothing was seen under these conditions.
# Tests used:
# [1] = system: ANTI-FLAG M2 monoclonal antibody (mouse IgG), native (Mus musculus); assay: binding assay; details: RNA with 5'-dA5 (1-5), Northwestern blot, antibody bound to FLAG-BAP on PVDF, purified native protein, protein details: SIGMA F3165 Lot 086K6012, label: 5'-biotin
# [2] = system: anti-FLAG mouse IgG, denatured (SDS-PAGE heavy and light chains) (Mus musculus); assay: binding assay; details: RNA with 5'-dA5 (1-5), DNA at 6-9 and 35-38, 2'-OMe U10; Northwestern blot, 20 nM aptamer, 0.5 ug IgG after SDS-PAGE; no heavy or light chain signal; purified native protein; label: 5'-biotin; variant of MIG-m034
sequence,measurement,setting,value
AAAAACGCUGAAGAGAAGACGGAAGGAGACGAAGCGT [MIG-m042],binding result,"[1]; LNA at C6 G7 C35 G36, 2'-OMe U9, 3'-dT37, 10 nM aptamer, variant of MIG-m034",binds
AAAAACGCUGAAGAGAAGACGGAAGGAGACGAAGCGT [MIG-m034],binding result,"[1]; LNA at C6 G7 C35 G36, 3'-dT37, 20 nM aptamer",binds
AAAAAGCGCUGAAGAGAAGACGGAAGGAGACGAAGCGC [MIG-m041],binding result,"[1]; DNA at 6-9 and 35-38, 2'-OMe U10, 10 nM (20 nM in Example 5) aptamer, variant of MIG-m034",binds
same,binding result,[2],no binding
